Source: PMC3708934
Results are given in words; binding and its absence hold for the method and conditions named. Binding seen in cells or lysates may run through a third protein. Here binding means that the protein was enriched with, or labelled near, the bait; the list need not be complete. For part of these data: No binding means not detected with the bait.

Amino acid sequences for entries named in this document (tags omitted). A change or cut given only in a name is not applied to a line headed by its entry. Chains listed by the source or under a name are the forms on record and can include a tag or linker.
UniProt Q9Y3Z3: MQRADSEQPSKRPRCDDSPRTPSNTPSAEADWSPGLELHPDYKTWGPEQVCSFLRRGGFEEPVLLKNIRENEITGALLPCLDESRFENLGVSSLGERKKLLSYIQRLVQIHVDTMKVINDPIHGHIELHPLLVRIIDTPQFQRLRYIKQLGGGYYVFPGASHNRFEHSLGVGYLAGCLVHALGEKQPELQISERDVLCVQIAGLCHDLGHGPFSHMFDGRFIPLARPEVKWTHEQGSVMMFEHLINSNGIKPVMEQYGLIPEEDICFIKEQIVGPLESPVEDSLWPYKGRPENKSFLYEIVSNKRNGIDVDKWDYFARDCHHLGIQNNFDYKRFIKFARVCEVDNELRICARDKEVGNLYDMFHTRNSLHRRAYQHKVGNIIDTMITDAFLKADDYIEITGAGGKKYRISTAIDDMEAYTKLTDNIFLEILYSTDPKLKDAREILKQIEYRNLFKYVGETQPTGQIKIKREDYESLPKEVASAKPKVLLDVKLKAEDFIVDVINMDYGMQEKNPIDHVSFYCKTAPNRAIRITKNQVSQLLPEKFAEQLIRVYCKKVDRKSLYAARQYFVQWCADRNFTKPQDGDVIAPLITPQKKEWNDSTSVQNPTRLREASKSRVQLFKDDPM
SAMHD1 Δ2–109-HA (Q9Y3Z3, form named): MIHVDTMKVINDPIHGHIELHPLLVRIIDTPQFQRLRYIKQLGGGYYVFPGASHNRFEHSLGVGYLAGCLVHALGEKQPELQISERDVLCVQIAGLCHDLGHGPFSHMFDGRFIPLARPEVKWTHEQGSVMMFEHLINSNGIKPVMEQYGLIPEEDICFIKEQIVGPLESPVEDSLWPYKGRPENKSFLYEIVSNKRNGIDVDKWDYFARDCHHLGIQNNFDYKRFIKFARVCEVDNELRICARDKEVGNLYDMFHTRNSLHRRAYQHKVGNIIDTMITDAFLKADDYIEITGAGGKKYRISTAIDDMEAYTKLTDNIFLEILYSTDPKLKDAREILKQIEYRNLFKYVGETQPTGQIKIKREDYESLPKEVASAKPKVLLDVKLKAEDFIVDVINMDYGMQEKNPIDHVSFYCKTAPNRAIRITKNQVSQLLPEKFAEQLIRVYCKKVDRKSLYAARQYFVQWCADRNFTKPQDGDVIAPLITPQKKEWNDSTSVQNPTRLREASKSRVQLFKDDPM
UniProt P62316: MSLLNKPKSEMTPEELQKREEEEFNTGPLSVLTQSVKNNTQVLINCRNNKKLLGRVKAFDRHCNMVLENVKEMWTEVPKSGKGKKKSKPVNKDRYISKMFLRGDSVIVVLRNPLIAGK
UniProt Q14974: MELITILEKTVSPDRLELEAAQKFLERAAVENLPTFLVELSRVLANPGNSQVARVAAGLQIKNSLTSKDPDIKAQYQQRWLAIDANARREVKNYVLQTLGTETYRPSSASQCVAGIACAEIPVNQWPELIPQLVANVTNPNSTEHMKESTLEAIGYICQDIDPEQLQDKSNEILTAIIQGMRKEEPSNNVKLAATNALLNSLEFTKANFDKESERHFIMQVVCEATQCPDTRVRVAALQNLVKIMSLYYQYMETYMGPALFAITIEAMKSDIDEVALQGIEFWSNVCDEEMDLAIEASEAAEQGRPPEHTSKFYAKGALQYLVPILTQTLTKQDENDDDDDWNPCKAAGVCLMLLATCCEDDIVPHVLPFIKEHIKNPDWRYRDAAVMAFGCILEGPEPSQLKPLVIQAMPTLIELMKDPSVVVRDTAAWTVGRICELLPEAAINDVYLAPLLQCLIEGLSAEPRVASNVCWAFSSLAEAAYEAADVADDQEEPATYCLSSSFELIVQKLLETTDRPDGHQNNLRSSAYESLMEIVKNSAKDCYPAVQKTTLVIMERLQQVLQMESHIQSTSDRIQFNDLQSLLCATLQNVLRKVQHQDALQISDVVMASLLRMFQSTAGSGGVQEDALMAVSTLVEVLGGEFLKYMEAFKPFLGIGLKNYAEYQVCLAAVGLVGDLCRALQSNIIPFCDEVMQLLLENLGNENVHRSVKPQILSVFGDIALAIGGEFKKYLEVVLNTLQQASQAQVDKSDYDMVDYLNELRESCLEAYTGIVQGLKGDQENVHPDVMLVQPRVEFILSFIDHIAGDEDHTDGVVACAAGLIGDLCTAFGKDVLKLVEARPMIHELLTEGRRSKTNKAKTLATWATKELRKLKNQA
UniProt Q6UXN9: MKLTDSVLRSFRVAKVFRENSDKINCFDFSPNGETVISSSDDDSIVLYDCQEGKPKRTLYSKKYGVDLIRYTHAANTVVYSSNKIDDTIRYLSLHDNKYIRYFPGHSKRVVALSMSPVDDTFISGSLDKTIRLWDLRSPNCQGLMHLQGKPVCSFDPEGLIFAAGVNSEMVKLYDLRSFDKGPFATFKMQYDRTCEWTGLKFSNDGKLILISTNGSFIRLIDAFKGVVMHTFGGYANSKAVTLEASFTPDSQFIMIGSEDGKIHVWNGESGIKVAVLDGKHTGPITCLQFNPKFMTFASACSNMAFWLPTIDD

Tests used:
Experiment in all cases: affinity purification with mass spectrometry; SAMHD1-HA WT, K11A, Δ2–109 or empty vector transfected into HEK293T; anti-HA affinity matrix; trypsin digest, LC-MS/MS (Orbitrap Velos Pro), MaxQuant label-free quantitation
[1] = biological target: wild-type SAMHD1-HA (sterile alpha motif and HD domain-containing protein-1) (human) (UniProt Q9Y3Z3)
SAMHD1 Δ2–109-HA (human) = SAMHD1 Δ2–109-HA (human) (UniProt Q9Y3Z3)
SAMHD1 K11A-HA (human) = SAMHD1 K11A-HA (human) (UniProt Q9Y3Z3)

Substance	binding [1]	binding (SAMHD1 Δ2–109-HA (human))	binding (SAMHD1 K11A-HA (human))
SNRPD2 (from UniProt P62316 1-118)	binds	binds	no binding
karyopherin-β1 (KPNB1) (from UniProt Q14974 1-876)	binds	binds	binds
WDR82 (from UniProt Q6UXN9 1-313)	binds	binds	no binding
